Data taken from PMC11091121.

The chains behind the UniProt entries cited, without tags or fusion partners. Residues count along the entry.
UniProt Q8C6L5, 147-507 E211Q/D213N: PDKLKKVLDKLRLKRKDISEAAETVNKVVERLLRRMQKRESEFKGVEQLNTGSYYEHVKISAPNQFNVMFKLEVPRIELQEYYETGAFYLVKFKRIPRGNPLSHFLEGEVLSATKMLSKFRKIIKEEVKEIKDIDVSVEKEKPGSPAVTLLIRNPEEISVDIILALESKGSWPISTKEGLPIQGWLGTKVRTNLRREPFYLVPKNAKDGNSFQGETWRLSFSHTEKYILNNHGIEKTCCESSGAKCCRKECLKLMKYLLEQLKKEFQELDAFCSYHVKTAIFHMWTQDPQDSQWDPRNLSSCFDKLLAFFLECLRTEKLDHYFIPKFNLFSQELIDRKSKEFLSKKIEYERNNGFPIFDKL
UniProt Q8C6L5, 147-507: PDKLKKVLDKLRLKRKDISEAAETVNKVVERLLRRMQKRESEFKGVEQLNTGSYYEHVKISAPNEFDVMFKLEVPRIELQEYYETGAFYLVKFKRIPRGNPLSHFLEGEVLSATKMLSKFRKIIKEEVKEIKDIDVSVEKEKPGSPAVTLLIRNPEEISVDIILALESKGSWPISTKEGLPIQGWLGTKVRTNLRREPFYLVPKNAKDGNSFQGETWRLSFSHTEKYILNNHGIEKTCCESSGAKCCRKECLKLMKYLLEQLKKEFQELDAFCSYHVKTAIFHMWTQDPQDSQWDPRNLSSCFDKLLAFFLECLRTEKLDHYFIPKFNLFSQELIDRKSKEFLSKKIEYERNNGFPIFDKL
UniProt Q8C6L5, whole entry: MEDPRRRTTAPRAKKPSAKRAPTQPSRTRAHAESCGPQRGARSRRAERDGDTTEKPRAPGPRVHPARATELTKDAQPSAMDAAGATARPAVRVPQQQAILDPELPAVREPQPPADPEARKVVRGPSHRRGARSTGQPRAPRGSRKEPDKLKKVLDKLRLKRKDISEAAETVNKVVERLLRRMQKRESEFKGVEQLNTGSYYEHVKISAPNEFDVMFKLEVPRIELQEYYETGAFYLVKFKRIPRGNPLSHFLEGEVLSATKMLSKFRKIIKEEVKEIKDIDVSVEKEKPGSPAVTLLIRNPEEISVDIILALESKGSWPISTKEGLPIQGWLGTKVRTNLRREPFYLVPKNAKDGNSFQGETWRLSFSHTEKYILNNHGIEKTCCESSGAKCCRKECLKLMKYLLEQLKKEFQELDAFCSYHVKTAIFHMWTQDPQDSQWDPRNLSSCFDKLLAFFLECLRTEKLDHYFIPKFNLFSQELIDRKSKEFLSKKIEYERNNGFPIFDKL

Legend:
[1] = target: QN-mcGAScat E211Q,D213N (mouse) (UniProt Q8C6L5); assay: crystal structure; conditions: crystals: 0.2 M ammonium acetate, 32% MPD, 0.1 M Bis-Tris pH 6.5, 4 C, recombinant protein, residues 147-507
[2] = target: WT-mcGAScat (mouse) (UniProt Q8C6L5); assay: crystal structure; conditions: pppGpG, 2 Mn2+; crystals: 0.2 M ammonium acetate, 32% MPD, 0.1 M Bis-Tris pH 6.5, 4 C; recombinant protein; residues 147-507
[3] = target: WT-mcGAScat (mouse) (UniProt Q8C6L5); assay: fluorescence anisotropy; conditions: FA: 5 nM FAM-dsDNA, as previously reported (reaction buffer likely 25 mM Tris-acetate pH 7.4, 125 mM KAc, 5 mM MgAc2, 1 mM TCEP, 5% glycerol, 25 C), recombinant protein, residues 147-507, label: FAM; for binding result: length-dependent binding, value not in material
[4] = target: mcGASFL (mouse) (UniProt Q8C6L5); assay: fluorescence anisotropy; conditions: length-dependent binding, FA: 5 nM FAM-dsDNA, as previously reported (reaction buffer likely 25 mM Tris-acetate pH 7.4, 125 mM KAc, 5 mM MgAc2, 1 mM TCEP, 5% glycerol, 25 C), recombinant protein, residues 1-507, label: FAM

Sequence: ATCTGTACATGTACAGAT (double strand) [18-bp palindromic dsDNA]
- binding result ([1]; GTP/GTP, Mg2+): binds
- binding result ([1]; ITP/GTP): binds
- binding result [2]: binds

Sequence: TAAGACACGATGCGATAAAA (double strand) [20-bp FAM-dsDNA]
- binding result [3]: binds
- binding result ([4]; value not in material): binds

Sequence: TAAGACACGATGCGATAAAATCTGTTTGTAAAATTTATT (double strand) [39-bp FAM-dsDNA]
- binding result [3]: binds
- binding result ([4]; value not in material): binds

Sequence: TAAGACACGATGCGATAAAATCTGTTTGTAAAATTTATTAAGGGTACAAATTGCCCTAGCACAGGGGTGGGG (double strand) [72-bp FAM-dsDNA]
- Kd [3]: 286 nM
- binding result ([4]; value not in material (or 286.42 nM if the excerpt row is the FL block)): binds

Construct, isoform or probe ends are uncertain for at least one entry. At least one verdict rests on a figure or table, not on a statement of the authors.
